Results deposited as PubChem BioAssay AID1053208 (Peter MacCallum Cancer Centre, 2014).

Screen: 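Find knock-downs that sensitise mouse osteosarcoma cells to doxorubicin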 (primary screen)
Cell system: mouse osteosarcoma cells, early-passage culture from an engineered mouse model of fibroblastic bone tumour
Reagents: siRNA pool against mouse genes, 40 nM
Duration: about 120 h (48 h before drug, then 72 h with drug)
Treatment: doxorubicin 100 nM for 72 h, roughly 30-40% inhibitory dose
Measured: 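Luminescent ATP signal taken as viability with or without 100 nM doxorubicin for 72 h; mean of two wells set against non-targeting siRNA and turned into robust z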
Direction: viability z-score with doxorubicin: higher = more viable cells under doxorubicin; viability z-score without drug: higher = more viable cells with knock-down alone
Call rule: 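a pool counts as active when its viability z-score with doxorubicin is -2 or below and its z-score without drug lies between -2 and 2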
In all, the deposit lists about 17,000 reagents; below is a part drawn at random. In the full data, 788 (4.7%) are marked active. 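Calls rest on z-score classes alone; an extra cut-off of viability at most 70% of control was not applied to them.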 Further read-outs or replicates are left out here. No sequences are given here.

The opening 2 records as a preview:
1700123K08Rik | combined z-score class: low cell count with doxorubicin only; viability z-score with doxorubicin: -2.02; viability z-score without drug: 0; Call: active
S100a9 | combined z-score class: no change with or without drug; viability z-score with doxorubicin: 0.22; viability z-score without drug: 1.52; Call: inactive

The listing, from the start:
1700123K08Rik | combined z-score class: low cell count with doxorubicin only; viability z-score with doxorubicin: -2.02; viability z-score without drug: 0; Call: active
S100a9 | combined z-score class: no change with or without drug; viability z-score with doxorubicin: 0.22; viability z-score without drug: 1.52; Call: inactive
Ipo13 | combined z-score class: no change with or without drug; viability z-score with doxorubicin: -1.24; viability z-score without drug: -1.35; Call: inactive
Kmt2a | combined z-score class: no change with or without drug; viability z-score with doxorubicin: -0.22; viability z-score without drug: 0.34; Call: inactive
Egr4 | combined z-score class: low cell count with doxorubicin only; viability z-score with doxorubicin: -2.14; viability z-score without drug: -0.84; Call: active
Defb3 | combined z-score class: no change with or without drug; viability z-score with doxorubicin: -0.22; viability z-score without drug: 0.17; Call: inactive
Nucb1 | combined z-score class: no change with or without drug; viability z-score with doxorubicin: 1.01; viability z-score without drug: -0.67; Call: inactive
Pcyt2 | combined z-score class: low cell count with doxorubicin only; viability z-score with doxorubicin: -2.14; viability z-score without drug: 1.35; Call: active
Scp2d1 | combined z-score class: low cell count with doxorubicin only; viability z-score with doxorubicin: -2.02; viability z-score without drug: -1.01; Call: active
Cox5b | combined z-score class: no change with or without drug; viability z-score with doxorubicin: 0.9; viability z-score without drug: 1.85; Call: inactive
Twsg1 | combined z-score class: low cell count with doxorubicin only; viability z-score with doxorubicin: -2.59; viability z-score without drug: -1.52; Call: active
Bltp3b | combined z-score class: high cell count without drug only; viability z-score with doxorubicin: 0.67; viability z-score without drug: 2.19; Call: inactive
Tnfaip8l2 | combined z-score class: high cell count without drug only; viability z-score with doxorubicin: 0.79; viability z-score without drug: 2.53; Call: inactive
Tbl1xr1 | combined z-score class: high cell count without drug only; viability z-score with doxorubicin: 0.34; viability z-score without drug: 2.02; Call: inactive
Timm22 | combined z-score class: low cell count with doxorubicin only; viability z-score with doxorubicin: -3.04; viability z-score without drug: -0.84; Call: active
Gpr107 | combined z-score class: no change with or without drug; viability z-score with doxorubicin: -0.67; viability z-score without drug: 0.17; Call: inactive
Rasgrf2 | combined z-score class: no change with or without drug; viability z-score with doxorubicin: 0; viability z-score without drug: -0.51; Call: inactive
Or6k2 | combined z-score class: no change with or without drug; viability z-score with doxorubicin: -1.35; viability z-score without drug: -1.18; Call: inactive
Tirap | combined z-score class: no change with or without drug; viability z-score with doxorubicin: 1.01; viability z-score without drug: 0.17; Call: inactive
Gdi1 | combined z-score class: no change with or without drug; viability z-score with doxorubicin: -0.9; viability z-score without drug: -0.84; Call: inactive
Vmn1r11 | combined z-score class: low cell count with doxorubicin only; viability z-score with doxorubicin: -2.47; viability z-score without drug: -0.84; Call: active
Dsg3 | combined z-score class: low cell count with doxorubicin only; viability z-score with doxorubicin: -2.25; viability z-score without drug: 0; Call: active
Pcdhgc4 | combined z-score class: no change with or without drug; viability z-score with doxorubicin: -0.22; viability z-score without drug: -0.84; Call: inactive
Pfn2 | combined z-score class: no change with or without drug; viability z-score with doxorubicin: 1.69; viability z-score without drug: 1.85; Call: inactive
Shisa7 | combined z-score class: low cell count with doxorubicin only; viability z-score with doxorubicin: -2.47; viability z-score without drug: 0.51; Call: active
Ubl7 | combined z-score class: no change with or without drug; viability z-score with doxorubicin: -0.22; viability z-score without drug: 0.51; Call: inactive
Ecrg4 | combined z-score class: no change with or without drug; viability z-score with doxorubicin: 0.22; viability z-score without drug: 1.69; Call: inactive
Carns1 | combined z-score class: no change with or without drug; viability z-score with doxorubicin: -0.22; viability z-score without drug: 0.84; Call: inactive
